# PubChem BioAssay AID1487 (National Center for Advancing Translational Sciences (NCATS), 2009)
# Some of the results follow. Shown are side measurements of this screen, not its main read-out; they come without a call. Compounds called inactive in the main read-out are mostly missing here. The note in brackets gives the kind of curve behind each potency; many fits are weak.
# Assay: qHTS Assay for Modulators of Lamin A Splicing
# Details: HeLa LMNA splicing GFP/RFP minigene ratio, 48 h
# Method in brief: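 Read-out is the ratio of GFP to DsRed2 object intensity, acquired by 488 nm laser-scanning cytometry on HeLa lamin A-EGFP minigene reporter cells. Compound incubation 48 hrs at 37 °C in Opti-MEM with 2% FBS; DMSO 0.5% final.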
# [1] = measured here: GFP splicing reporter channel
# [2] = measured here: RFP viability control channel
SMILES,AC50 [1],AC50 [2]
Cc1nn(-c2nc3ccccc3s2)c(C)c1Oc1ccccc1O,"35.5 µM [falling, single point]","1.58 µM [rising, partial curve, poor fit]"
Cc1cc(C)cc(CC(Cc2nc3ccccc3[nH]2)c2nc3ccccc3[nH]2)c1 (stereo not drawn),–,"22.4 µM [rising, single point]"
O=C(Nc1ncc(Cc2ccccc2Cl)s1)c1ccc(-c2cccc([N+](=O)[O-])c2)o1,–,"3.98 µM [rising, full curve, poor fit]"
NC(N)=NCCC[C@H](NC(=O)OCc1ccccc1)C(=O)O,–,"5.01 µM [falling, partial curve]"
CC(C)c1ccc(NC(=O)C(c2ccccc2)N2CCC3(CC2)OCCO3)cc1 (stereo not drawn),"11.2 µM [rising, single point]","11.2 µM [rising, single point]"
CCN(CC)S(=O)(=O)c1ccc(C(=O)NC2CC(=O)N(c3ccc(OC)c(OC)c3)C2)cc1 (stereo not drawn),"3.98 µM [rising, full curve, poor fit]","4.47 µM [rising, single point]"
CC(/C=C/c1ccccc1)=N\Nc1nc(-c2ccccc2)cs1,"7.08 µM [rising, partial curve, poor fit]","8.91 µM [rising, partial curve, poor fit]"
Cc1ccc(CNS(=O)(=O)c2ccc3[nH]c4c(c3c2)CCCCC4)cc1,"35.5 µM [falling, single point]","35.5 µM [falling, partial curve]"
Cc1ccc2cc(C)c(SCC(=O)NCc3ccco3)nc2c1,"0.00355 µM [falling, full curve, poor fit]",–
Cc1ccccc1OCC(=O)Nc1ccccc1N1CCCCC1,"14.1 µM [rising, single point]","20 µM [rising, single point]"
Cc1ccc(-c2nc(NC(=O)c3nn(C)cc3[N+](=O)[O-])sc2C)cc1,–,"25.1 µM [falling, single point]"
Cc1ccc(C)c(Nc2c([N+](=O)[O-])cc(C(=O)N3CC(=O)Nc4ccccc43)cc2[N+](=O)[O-])c1,"35.5 µM [falling, single point]",–
COc1ccc(-c2nc3ccccc3c(=O)n2CCOc2ccccc2C)cc1,–,"1.78 µM [rising, full curve, poor fit]"
CCn1c(C)nc2cc(S(=O)(=O)C(F)(F)C(F)C(F)(F)F)ccc21 (stereo not drawn),"1.12 µM [rising, full curve]","15.8 µM [rising, partial curve]"
Cc1cccc(NC(=O)C2CCCN(S(=O)(=O)c3ccc4c(c3)CCCC(=O)N4)C2)c1 (stereo not drawn),–,"0.01 µM [falling, full curve, poor fit]"
COc1ccc(N=C2SC(CC(=O)Nc3cccc(Cl)c3)C(=O)N2Cc2ccco2)cc1 (stereo not drawn),"35.5 µM [falling, single point]","0.01 µM [falling, full curve, poor fit]"
O=C(O)C1CC(O)CN1c1nc(Cl)ccc1[N+](=O)[O-] (stereo not drawn),"22.4 µM [rising, partial curve, poor fit]",–
Cc1ccc(C)n1-n1c(C)nc2sc(-c3ccccc3)cc2c1=O,"25.1 µM [rising, single point]","25.1 µM [rising, single point]"
Cc1nn(C)c(C)c1/C=N/N=C1\CCC2C3CCc4cc(O)ccc4C3CCC12C (stereo not drawn),–,"15.8 µM [rising, single point]"
Brc1ccc(-c2cn3c(n2)CCc2ccc4cccnc4c2-3)cc1,"35.5 µM [falling, single point]","35.5 µM [falling, single point]"
O=C(Cn1nc(CNc2ccc(Cl)cc2)[n+]2c1CCCCC2)c1ccccc1,"35.5 µM [rising, single point]","35.5 µM [rising, single point]"
COc1ccc(C(=O)c2sc3nc(-c4ccccc4)ccc3c2N)cc1OC,–,"22.4 µM [falling, partial curve, poor fit]"
O=c1[nH]n2c(=O)c3c([nH]c2c1N=Nc1cccc(C(F)(F)F)c1)CCCC3,–,"22.4 µM [rising, partial curve, poor fit]"
COc1ccc(/C=C/C(=O)NCCCc2ccccc2)cc1,"31.6 µM [rising, single point]","35.5 µM [rising, single point]"
CC(C)c1ccc2c(c1)c(SC(C)(C)C)c(CC(C)(C)C(=O)O)n2Cc1ccc(Cl)cc1,"20 µM [falling, partial curve]","17.8 µM [falling, partial curve]"
Cc1nn(-c2ccccc2)c(Cl)c1/C=N/NC(=O)c1ccccc1NS(=O)(=O)c1cccs1,"1.26 µM [rising, partial curve]","14.1 µM [rising, partial curve]"
Cc1ccc(NCc2ccccc2OCc2ccccc2F)cc1,–,"17.8 µM [rising, single point]"

# Taken from above, 10 compounds:
SMILES,AC50 [1],AC50 [2]
CC(C)c1ccc(NC(=O)C(c2ccccc2)N2CCC3(CC2)OCCO3)cc1 (stereo not drawn),"11.2 µM [rising, single point]","11.2 µM [rising, single point]"
CCN(CC)S(=O)(=O)c1ccc(C(=O)NC2CC(=O)N(c3ccc(OC)c(OC)c3)C2)cc1 (stereo not drawn),"3.98 µM [rising, full curve, poor fit]","4.47 µM [rising, single point]"
CC(/C=C/c1ccccc1)=N\Nc1nc(-c2ccccc2)cs1,"7.08 µM [rising, partial curve, poor fit]","8.91 µM [rising, partial curve, poor fit]"
Cc1ccc(CNS(=O)(=O)c2ccc3[nH]c4c(c3c2)CCCCC4)cc1,"35.5 µM [falling, single point]","35.5 µM [falling, partial curve]"
Cc1ccc2cc(C)c(SCC(=O)NCc3ccco3)nc2c1,"0.00355 µM [falling, full curve, poor fit]",–
Cc1ccccc1OCC(=O)Nc1ccccc1N1CCCCC1,"14.1 µM [rising, single point]","20 µM [rising, single point]"
Cc1ccc(-c2nc(NC(=O)c3nn(C)cc3[N+](=O)[O-])sc2C)cc1,–,"25.1 µM [falling, single point]"
Cc1ccc(C)c(Nc2c([N+](=O)[O-])cc(C(=O)N3CC(=O)Nc4ccccc43)cc2[N+](=O)[O-])c1,"35.5 µM [falling, single point]",–
COc1ccc(-c2nc3ccccc3c(=O)n2CCOc2ccccc2C)cc1,–,"1.78 µM [rising, full curve, poor fit]"
CCn1c(C)nc2cc(S(=O)(=O)C(F)(F)C(F)C(F)(F)F)ccc21 (stereo not drawn),"1.12 µM [rising, full curve]","15.8 µM [rising, partial curve]"

# (continued)

SMILES,AC50 [1],AC50 [2]
Cc1nn(-c2ccccc2)c2[nH]c(=O)c(CNc3ccc4c(c3)OCCO4)cc12,"8.91 µM [rising, partial curve]","3.55 µM [rising, partial curve, poor fit]"
CCCCOc1ccc(S(=O)(=O)Nc2ccc(NC(C)=O)cc2)cc1,"4.47 µM [rising, full curve, poor fit]","11.2 µM [rising, partial curve]"
CN(C)S(=O)(=O)c1ccc(C(=O)Nc2ccccc2[N+](=O)[O-])cc1,"12.6 µM [rising, single point]",–
COC(=O)[C@@H]1C[C@H]1[C@@H](NC(=O)c1ccccc1)c1ccccc1,–,"35.5 µM [rising, single point]"
COc1ccc(OC)c(C2C3=C(COC3=O)Nc3cc4c(cc32)OCO4)c1 (stereo not drawn),"0.224 µM [falling, full curve]","0.251 µM [falling, full curve]"
CC(C)NC(=S)N/N=C/c1c[nH]c2ccccc12,–,"10 µM [rising, partial curve]"
CN(C)CCCNC(=S)N(Cc1cccs1)Cc1cc2cc3c(cc2[nH]c1=O)OCCO3,–,"0.01 µM [falling, full curve, poor fit]"
N/C(=N\OC(=O)c1ccc2ccccc2c1)c1ccc(Br)cc1,"1.78 µM [rising, full curve, poor fit]","1.12 µM [rising, full curve, poor fit]"
C[C@@H](CCc1ccccc1)NC[C@H](O)c1ccc(O)c(C(N)=O)c1,–,"0.282 µM [falling, single point]"
Cc1cc(-n2c(C)cc(C(=O)CSc3ccc4c(c3)OCCO4)c2C)no1,"14.1 µM [rising, partial curve]","15.8 µM [rising, partial curve]"
Cc1cc(=O)[nH]c2nnc(SCc3cccc(F)c3)n12,"0.1 µM [falling, single point]",–
CCOC(=O)NNc1nncc2ccccc12,–,"7.94 µM [rising, single point]"
O=C(NCCSCc1ccco1)Nc1cccc(Cl)c1,–,"17.8 µM [rising, single point]"
CC1CCCN(S(=O)(=O)c2ccc(S(=O)(=O)NC(C)c3cccs3)cc2)C1 (stereo not drawn),–,"17.8 µM [rising, single point]"
CCN(CC(=O)Nc1cccc(OC)c1)c1ncnc2sc(C)c(C)c12,"5.01 µM [rising, full curve, poor fit]","3.98 µM [rising, full curve]"
O=C(O)c1ccc(Cn2cnc3scc(-c4ccccc4)c3c2=O)cc1,"14.1 µM [rising, partial curve, poor fit]",–
CCCn1cc(SCC(=O)Nc2nnc(C)s2)c2ccccc21,"2.82 µM [falling, partial curve]","3.98 µM [falling, partial curve, poor fit]"
Cc1nc(NC(=O)C2CC2)sc1C(=O)NC1CCCCC1,–,"31.6 µM [falling, single point]"
COc1ccc(C(=O)CSc2nc3cccnc3n2C)cc1,–,"25.1 µM [rising, single point]"
CSc1nc2ccc(S(=O)(=O)NC3CCCCC3)cc2s1,–,"11.2 µM [rising, partial curve, poor fit]"
O=[N+]([O-])c1cccc(S(=O)(=O)c2ccc(N3CCCCC3)c([N+](=O)[O-])c2)c1,"35.5 µM [rising, single point]","35.5 µM [rising, single point]"
CCC1(C)COC(C)(CC(=O)NNC(=O)Nc2ccccc2)OC1 (stereo not drawn),–,"0.794 µM [rising, full curve, poor fit]"
Cc1ccc(C)c(N2CCN(C(=O)Cn3cccc3)CC2)c1,"35.5 µM [rising, single point]","31.6 µM [rising, single point]"
CCOC(=O)C1CN(S(=O)(=O)c2ccc(C)cc2)CCN1S(=O)(=O)c1ccc(C)cc1 (stereo not drawn),–,"35.5 µM [rising, single point]"
CCC1S/C(=N/N=C/c2cccs2)NC1=O (stereo not drawn),"0.316 µM [rising, partial curve]","0.316 µM [rising, full curve, poor fit]"
COc1ccc(N2CCN(C(=O)c3ccc(NS(=O)(=O)c4ccc(F)c(F)c4)cc3)CC2)cc1,"14.1 µM [rising, single point]","28.2 µM [rising, single point]"
